This passage reports binding results from PMC7254050.

By UniProt entry, the sequences of proteins in these tests, tags left out.
UniProt Q15746: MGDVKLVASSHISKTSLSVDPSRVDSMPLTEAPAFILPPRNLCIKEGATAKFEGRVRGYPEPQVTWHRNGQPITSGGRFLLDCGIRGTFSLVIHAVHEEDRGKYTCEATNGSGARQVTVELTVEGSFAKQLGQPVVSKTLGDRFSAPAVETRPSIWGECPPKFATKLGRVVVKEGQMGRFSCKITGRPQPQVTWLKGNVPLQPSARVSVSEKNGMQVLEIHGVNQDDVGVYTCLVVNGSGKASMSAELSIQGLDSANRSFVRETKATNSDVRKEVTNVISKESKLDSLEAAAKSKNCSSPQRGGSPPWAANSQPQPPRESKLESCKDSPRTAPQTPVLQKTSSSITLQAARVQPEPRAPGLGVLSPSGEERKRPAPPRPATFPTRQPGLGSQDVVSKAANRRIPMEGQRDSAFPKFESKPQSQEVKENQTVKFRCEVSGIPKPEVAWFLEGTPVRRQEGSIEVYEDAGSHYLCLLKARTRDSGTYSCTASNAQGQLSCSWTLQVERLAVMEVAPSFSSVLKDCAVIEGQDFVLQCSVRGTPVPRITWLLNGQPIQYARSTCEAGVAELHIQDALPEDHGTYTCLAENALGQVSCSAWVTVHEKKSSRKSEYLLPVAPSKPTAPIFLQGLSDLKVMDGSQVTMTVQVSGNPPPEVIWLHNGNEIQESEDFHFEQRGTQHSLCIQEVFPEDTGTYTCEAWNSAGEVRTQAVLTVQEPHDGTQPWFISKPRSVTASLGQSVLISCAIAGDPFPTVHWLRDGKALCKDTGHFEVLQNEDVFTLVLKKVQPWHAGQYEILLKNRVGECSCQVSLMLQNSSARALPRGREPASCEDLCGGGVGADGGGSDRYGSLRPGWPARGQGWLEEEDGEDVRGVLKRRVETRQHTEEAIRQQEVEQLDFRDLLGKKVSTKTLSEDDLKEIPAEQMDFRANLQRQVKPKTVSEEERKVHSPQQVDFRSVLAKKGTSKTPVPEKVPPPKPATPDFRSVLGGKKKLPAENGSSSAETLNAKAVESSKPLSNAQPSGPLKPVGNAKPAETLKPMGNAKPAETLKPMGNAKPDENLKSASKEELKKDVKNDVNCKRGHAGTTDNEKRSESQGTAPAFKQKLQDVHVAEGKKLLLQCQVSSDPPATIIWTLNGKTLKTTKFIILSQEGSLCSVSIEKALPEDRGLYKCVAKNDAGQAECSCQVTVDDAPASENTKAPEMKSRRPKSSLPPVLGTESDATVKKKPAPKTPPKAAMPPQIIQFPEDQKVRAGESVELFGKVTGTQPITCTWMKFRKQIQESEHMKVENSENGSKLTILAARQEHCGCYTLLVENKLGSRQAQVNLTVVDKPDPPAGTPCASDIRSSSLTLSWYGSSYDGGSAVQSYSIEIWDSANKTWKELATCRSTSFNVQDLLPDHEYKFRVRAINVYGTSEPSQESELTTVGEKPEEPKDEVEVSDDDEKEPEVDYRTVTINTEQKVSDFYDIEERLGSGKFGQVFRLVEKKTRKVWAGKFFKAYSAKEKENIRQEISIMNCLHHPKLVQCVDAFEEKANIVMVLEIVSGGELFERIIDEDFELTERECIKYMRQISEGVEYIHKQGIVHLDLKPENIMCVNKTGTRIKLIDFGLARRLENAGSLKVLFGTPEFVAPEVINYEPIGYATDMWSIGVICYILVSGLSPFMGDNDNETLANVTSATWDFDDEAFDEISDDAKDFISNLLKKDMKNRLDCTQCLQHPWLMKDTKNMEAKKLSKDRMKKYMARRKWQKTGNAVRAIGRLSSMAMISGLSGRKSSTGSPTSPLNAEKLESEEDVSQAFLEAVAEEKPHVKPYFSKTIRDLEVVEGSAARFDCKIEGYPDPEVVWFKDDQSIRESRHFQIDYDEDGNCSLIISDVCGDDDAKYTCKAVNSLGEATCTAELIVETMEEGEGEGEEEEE
UniProt P61586: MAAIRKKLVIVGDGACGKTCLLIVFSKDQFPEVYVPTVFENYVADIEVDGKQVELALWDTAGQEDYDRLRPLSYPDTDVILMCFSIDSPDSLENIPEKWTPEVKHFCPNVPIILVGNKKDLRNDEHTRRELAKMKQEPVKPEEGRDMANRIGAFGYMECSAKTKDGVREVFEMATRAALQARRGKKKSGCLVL

No constants are given. Whether binding was seen depends on the method and setting. In cells and extracts the contact can be indirect. Some binding calls cover weakened binding; strength is not graded here.

The target of the assay is T1, Hyaluronidase (HYAL)-2 (human (endogenous in human lung fibroblasts AG02262)) (UniProt Q12891).
T1 sequence: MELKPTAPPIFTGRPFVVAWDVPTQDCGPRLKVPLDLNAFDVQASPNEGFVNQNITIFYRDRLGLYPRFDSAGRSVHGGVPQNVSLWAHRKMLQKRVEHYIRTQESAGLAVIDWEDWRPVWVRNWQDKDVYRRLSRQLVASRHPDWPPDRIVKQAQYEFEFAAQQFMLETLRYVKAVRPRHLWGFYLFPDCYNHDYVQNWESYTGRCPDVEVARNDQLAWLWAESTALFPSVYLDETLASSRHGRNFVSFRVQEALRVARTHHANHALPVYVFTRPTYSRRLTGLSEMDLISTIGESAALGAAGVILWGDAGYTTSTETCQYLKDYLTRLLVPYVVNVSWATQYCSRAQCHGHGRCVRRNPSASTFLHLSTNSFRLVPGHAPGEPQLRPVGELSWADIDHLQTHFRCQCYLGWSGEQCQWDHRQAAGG
The assay is described as follows: co-IP; 25 μg protein of RIPA lysate of human lung fibroblasts (serum-free medium alone or 10 ng/mL TGF-β1, 72 hours) precipitated with anti-HYAL2 antibody-linked anti-rabbit Dynabeads, overnight at 4°C, three washes with Nonidet P-40 buffer; Western blot of the precipitate; rabbit IgG as negative control. (In western blotting, separated proteins are transferred to a membrane and probed.)

On to “myosin light-chain kinase (MYLK; MLCK) (from UniProt Q15746 1-1914) (enzyme)”, for which the binding entry is on record as “binds”.

As to “ras homolog family member A (RhoA) (from UniProt P61586 1-193)”, the binding entry is recorded as “binds”.
